According to patent US20230181614A1, “ADMINISTRATION OF CITICOLINE TO IMPROVE COGNITIVE PERFORMANCE, ATTENTIONAL PERFORMANCE, AND MOTOR FUNCTION” (KYOWA HAKKO BIO CO., LTD., priority 2014, published 2023):
For at least one compound, name, drawing or mass did not settle the structure.

Experiments:
Format in all cases: in vivo, human
[1] = system: Healthy subjects, ages 13-18; experiment: Pittsburgh Sleep Quality Index (PSQI); settings: for PSQI sleep quality difference scores, between groups / PSQI sleep quality, within-group change: visit 1 to visit 3; for PSQI sleep quality, within-group change: p<0.01
From the text: Study participants were screened by telephone prior to study enrollment. Healthy subjects, ages 13-18, with no significant medical conditions and no history of co-morbid psychiatric disorder, current Axis I or II diagnosis, or previous participation in a pharmacotherapeutic trial, were selected. Use of any psychotropic medication or any previous head injury resulting in loss of consciousness for 5 or more minutes were used as exclusion criteria. While no participant met criteria for a neuropsychiatric disorder at enrollment, clinical assessments were still completed throughout the study to evaluate changes in mood state. In addition, self-reports of sleep habits, lifestyle, and exercise routines were also administered at baseline as well as at each study visit to assess changes in health habits during study participation. Following the completion of Visit 1 assessment, participants were given their 28-day supply of citicoline (250 mg or 500 mg) or placebo, which was randomly assigned. They were instructed to take one capsule a day every day for the next 28 days. Visit 2 occurred fourteen days after Visit 1. At Visit 2, the remaining study pills were counted and participant dosage calendars were checked to ensure compliance with the protocol. Additional neuropsychological measures and clinical assessments were administered during this visit. Participants returned for Visit 3 fourteen days later, on the 28th day of their study participation. The pill bottle and the dosage calendar were collected from each participant. Urine and blood were again obtained. Participants also participated in similar clinical and neuropsychological testing and clinical measures that were given during visit 1. The PSQI is a self-report sleep questionnaire designed to assess usual sleep habits during the past month. The PSQI was administered at each of the three study visits to assess alterations to sleep quality during the 28 days of study participation.

[2] = system: Healthy subjects, ages 13-18; experiment: Positive and Negative Affect Scale for Children (PANAS-C)
From the text: Study participants were screened by telephone prior to study enrollment. Healthy subjects, ages 13-18, with no significant medical conditions and no history of co-morbid psychiatric disorder, current Axis I or II diagnosis, or previous participation in a pharmacotherapeutic trial, were selected. Use of any psychotropic medication or any previous head injury resulting in loss of consciousness for 5 or more minutes were used as exclusion criteria. While no participant met criteria for a neuropsychiatric disorder at enrollment, clinical assessments were still completed throughout the study to evaluate changes in mood state. In addition, self-reports of sleep habits, lifestyle, and exercise routines were also administered at baseline as well as at each study visit to assess changes in health habits during study participation. Following the completion of Visit 1 assessment, participants were given their 28-day supply of citicoline (250 mg or 500 mg) or placebo, which was randomly assigned. They were instructed to take one capsule a day every day for the next 28 days. Visit 2 occurred fourteen days after Visit 1. At Visit 2, the remaining study pills were counted and participant dosage calendars were checked to ensure compliance with the protocol. Additional neuropsychological measures and clinical assessments were administered during this visit. Participants returned for Visit 3 fourteen days later, on the 28th day of their study participation. The pill bottle and the dosage calendar were collected from each participant. Urine and blood were again obtained. Participants also participated in similar clinical and neuropsychological testing and clinical measures that were given during visit 1. The […] is a self-report questionnaire on which participants rate to what extent they are currently experiencing a variety of positive and negative emotions such as “excited” and “mad.” The PANAS was administered during each of the three visits to assess participant affect prior to taking the study drug as well as after taking the study drug over a period of 28 days.

[3] = system: Healthy subjects, ages 13-18; experiment: California Verbal Learning Test I and II (CVLT); settings: for CVLT difference scores (six measures), between groups: visits 1 and 3
From the text: Study participants were screened by telephone prior to study enrollment. Healthy subjects, ages 13-18, with no significant medical conditions and no history of co-morbid psychiatric disorder, current Axis I or II diagnosis, or previous participation in a pharmacotherapeutic trial, were selected. Use of any psychotropic medication or any previous head injury resulting in loss of consciousness for 5 or more minutes were used as exclusion criteria. While no participant met criteria for a neuropsychiatric disorder at enrollment, clinical assessments were still completed throughout the study to evaluate changes in mood state. In addition, self-reports of sleep habits, lifestyle, and exercise routines were also administered at baseline as well as at each study visit to assess changes in health habits during study participation. Following the completion of Visit 1 assessment, participants were given their 28-day supply of citicoline (250 mg or 500 mg) or placebo, which was randomly assigned. They were instructed to take one capsule a day every day for the next 28 days. Visit 2 occurred fourteen days after Visit 1. At Visit 2, the remaining study pills were counted and participant dosage calendars were checked to ensure compliance with the protocol. Additional neuropsychological measures and clinical assessments were administered during this visit. Participants returned for Visit 3 fourteen days later, on the 28th day of their study participation. The pill bottle and the dosage calendar were collected from each participant. Urine and blood were again obtained. Participants also participated in similar clinical and neuropsychological testing and clinical measures that were given during visit 1. […] Subjects are asked to remember a 16-item word list, which is presented on five trials. After each trial, the subject is asked to recall all of the words that they can remember. A second list is then presented to provide an interference condition. The subject is then asked to recall the first word list. After a temporal delay, the subject is again asked to recall the first word list. Test results provide scores for assessing verbal learning, strength of memory following interfering tasks, proactive interference, accuracy of recognition memory and storage versus retrieval of newly learned information. The CVLT was administered at all three visits.

[4] = 250 mg/day, visit 1 to visit 3, p<0.01

Structure (SMILES): C[N+](C)(C)CCOP(=O)(O)OP(=O)([O-])OC[C@H]1O[C@@H](n2ccc(N)nc2=O)[C@H](O)[C@@H]1O [citicoline, Cytidine 5′-diphosphocholine]
- PSQI sleep quality difference scores, between groups ([1]; 250 mg/day vs 500 mg/day, p=0.82): did not demonstrate a significant difference
- PSQI sleep quality, between groups ([1]; 250 mg/day vs 500 mg/day, visit 3, p=0.77): no significant difference
- PSQI sleep quality difference scores, between groups ([1]; 250 mg/day vs Placebo, p=0.72): did not demonstrate a significant difference
- PSQI sleep quality, between groups ([1]; 250 mg/day vs Placebo, visit 3, p=0.60): No significant difference
- PSQI sleep quality, within-group change ([1]; 250 mg/day): significant difference
- PSQI sleep quality, within-group change ([1]; 500 mg/day): significant difference
- PSQI sleep quality difference scores, between groups ([1]; Placebo vs 500 mg/day, p=0.92): no significant difference
- PSQI sleep quality, between groups ([1]; Placebo vs 500 mg/day, visit 3, p=0.83): No significant difference
- PSQI sleep quality difference scores, overall ([1]; three groups, p=0.47): no significant difference
- PSQI sleep quality, overall analysis ([1]; three groups, visit 3, p=0.44): no significant differences
- PANAS-C positive and negative difference scores, between groups ([2]; 250 mg/day vs 500 mg/day, visit 1 to visit 3, p=0.18, p=0.89): no significant differences
- PANAS-C positive and negative emotional attributes, between groups ([2]; 250 mg/day vs 500 mg/day, visit 3, p=0.95, p=0.18): no significant differences
- PANAS-C positive and negative difference scores, between groups ([2]; 250 mg/day vs Placebo, visit 1 to visit 3, p=0.23, p=0.43): no significant differences
- PANAS-C positive and negative emotional attributes, between groups ([2]; 250 mg/day vs Placebo, visit 3, p=0.44, p=0.45): no significant effects
- PANAS-C negative emotional attributes, overall analysis ([2]; 250 mg/day, Placebo, 500 mg/day, visit 3, p=0.06): trend toward significant differences
- PANAS-C negative emotions, within-group change [2, 4]: improvement
- PANAS-C positive emotions, within-group change [2, 4]: significant declines
- PANAS-C negative emotional attributes, between groups ([2]; 500 mg/day group compared to the 500 mg/day group (so in the source), visit 3, p=0.03): less negative emotional attributes
- PANAS-C negative emotions, post-hoc ([2]; 500 mg/day vs Placebo, visit 3, p=0.05): trend toward feeling less negative emotions
- PANAS-C negative emotions, within-group change ([2]; 500 mg/day, visit 1 to visit 3, p<0.01): improvement
- PANAS-C positive emotions, within-group change ([2]; 500 mg/day, visit 1 to visit 3, p=0.04): significant declines
- PANAS-C positive and negative difference scores, between groups ([2]; Placebo vs 500 mg/day, visit 1 to visit 3, p=0.97, p=0.41): no significant differences
- PANAS-C positive and negative difference scores, overall ([2]; three groups, visit 1 to visit 3, p=0.15, p=0.32): No overall between group differences
- CVLT List A Trial 1, Trial 5, Trials 1-5, List B, Short Delay, Long Delay, between groups ([3]; 250 mg/day vs 500 mg/day, time 3, p=0.81, 0.85, 0.80, 0.90, 0.67, 0.87): no significant differences
- CVLT difference scores (six measures), between groups ([3]; 250 mg/day vs 500 mg/day, p=0.33, 0.56, 0.81, 0.20, 0.90, 0.63): no significant differences
- CVLT difference scores (six measures), between groups ([3]; 250 mg/day vs Placebo, p=0.43, 0.87, 0.72, 0.37, 0.59, 0.40): no significant differences
- CVLT List A Trials 1-5, within-group change ([3]; 250 mg/day, visit 1 to 3, p=0.06): trend toward increases
- CVLT List A Trial 5 and List B, within-group change ([3]; 250 mg/day, visit 1 to 3, p=0.10, p=0.12): no significant improvements
- CVLT List A Trial 1, List A Short Delay, List A Long Delay, within-group change ([3]; 250 mg/day, visit 1 to visit 3, p<0.01, 0.01, 0.04): significant improvement
- CVLT List A Trial 1, Trial 5, Trials 1-5, Short Delay, Long Delay, within-group change ([3]; 500 mg/day, visit 1 to visit 3, p=0.02, 0.04, 0.02, 0.03, 0.01): significant improvement
- CVLT List A Long Delay, between groups ([3]; Placebo vs 500 mg/day, time 3, p=0.07): trend toward greater improvement in the Placebo group
- CVLT List A Trial 1, Trial 5, Trials 1-5, List B, Short Delay, between groups ([3]; Placebo vs 500 mg/day, time 3, p=0.60, 0.41, 0.21, 0.80, 0.25): No significant differences
- CVLT difference scores (six measures), between groups ([3]; Placebo vs 500 mg/day, p=0.79, 0.50, 0.91, 0.65, 0.69, 0.71): no significant differences
- CVLT List B, within-group change ([3]; group printed as Placebo, Table 67, visit 1 to visit 3, p=0.25): no significant improvement
- CVLT difference scores (six measures), all three groups ([3]; p=0.28, 0.38, 0.47, 0.20, 0.42, 0.35): no significant differences
- CVLT List A Trial 1, Trial 5, Trials 1-5, List B, Short Delay, Long Delay, between groups ([3]; printed 250 mg/day vs 500 mg/day, Table 69a, time 3, p=0.82, 0.60, 0.35, 0.68, 0.51, 0.15): no significant differences
- CVLT List A Trial 1, Trial 5, Trials 1-5, List B, Short Delay, Long Delay, all three groups ([3]; time 3, p=0.45, 0.37, 0.24, 0.46, 0.28, 0.10): no significant differences
